Protein sequences, listed by entry. Tags and fused reporters are not part of them. Lines headed by an entry give the natural chain unless they say otherwise; changes in a name come on top.
UniProt Q9Y376: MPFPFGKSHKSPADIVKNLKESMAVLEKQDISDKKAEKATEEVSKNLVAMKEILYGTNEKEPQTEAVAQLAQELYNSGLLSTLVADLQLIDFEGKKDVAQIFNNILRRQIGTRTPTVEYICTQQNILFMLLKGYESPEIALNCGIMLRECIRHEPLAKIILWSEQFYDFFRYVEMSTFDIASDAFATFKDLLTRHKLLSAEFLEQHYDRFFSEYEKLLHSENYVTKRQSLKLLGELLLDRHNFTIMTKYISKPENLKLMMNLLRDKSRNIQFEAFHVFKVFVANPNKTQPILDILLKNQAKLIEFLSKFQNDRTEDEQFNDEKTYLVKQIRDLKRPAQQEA

According to publication PMC2686265, “ATP and MO25α Regulate the Conformational State of the STRADα Pseudokinase and Activation of the LKB1 Tumour Suppressor” (PLoS Biology, 2009):

Molecular target: T1, GST-STRADα (wild type) (human) (UniProt Q7RTN6)
T1 sequence: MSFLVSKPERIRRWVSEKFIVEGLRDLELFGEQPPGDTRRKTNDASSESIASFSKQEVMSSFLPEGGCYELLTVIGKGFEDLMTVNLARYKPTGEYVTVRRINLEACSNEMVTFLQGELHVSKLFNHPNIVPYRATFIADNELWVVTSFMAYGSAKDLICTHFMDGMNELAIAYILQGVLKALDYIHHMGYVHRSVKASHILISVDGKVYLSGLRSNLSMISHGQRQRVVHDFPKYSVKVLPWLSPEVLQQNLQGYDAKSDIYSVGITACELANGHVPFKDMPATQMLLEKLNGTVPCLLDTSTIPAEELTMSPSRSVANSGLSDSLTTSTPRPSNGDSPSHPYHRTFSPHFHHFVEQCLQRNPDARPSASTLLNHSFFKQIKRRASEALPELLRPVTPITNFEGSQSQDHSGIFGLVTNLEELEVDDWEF
Experiment: pull-down; GST-STRADα and MO25α (Myc-tagged or untagged) co-expressed in 293 cells, lysed 36 h post-transfection, GST-STRADα purified on glutathione-Sepharose, immunoblot

Substance	binding
Myc-MO25α mutated at Arg227 (αB site) (from UniProt Q9Y376)	no binding
Myc-MO25α mutated at Asn269 (from UniProt Q9Y376)	binds
Myc-MO25α mutated at Glu93 (αE site) (from UniProt Q9Y376)	no binding
Myc-MO25α mutated at Leu141 (from UniProt Q9Y376)	binds
Myc-MO25α mutated at Lys96 (αE site) (from UniProt Q9Y376)	no binding
Myc-MO25α mutated at Lys231 (from UniProt Q9Y376)	binds
Myc-MO25α mutated at Met260 (WEF pocket) (from UniProt Q9Y376)	no binding
Myc-MO25α mutated at Phe92 (αE site) (from UniProt Q9Y376)	no binding
Myc-MO25α mutated at Tyr223 (αB site) (from UniProt Q9Y376)	no binding

No constants are given. Whether binding was seen depends on the method and setting. Binding seen in cells or lysates may run through a third protein. Binding can be weak; no strength is given. Tags and fused reporters may be left off the sequences shown.
